SMILES strings stand for the structures. ± gives the standard deviation of the averaged measurements. Some of the results follow.

For this assay, the target named is T1, UniProt Q5JRX3 and related entries.
T1 sequence (whole entry): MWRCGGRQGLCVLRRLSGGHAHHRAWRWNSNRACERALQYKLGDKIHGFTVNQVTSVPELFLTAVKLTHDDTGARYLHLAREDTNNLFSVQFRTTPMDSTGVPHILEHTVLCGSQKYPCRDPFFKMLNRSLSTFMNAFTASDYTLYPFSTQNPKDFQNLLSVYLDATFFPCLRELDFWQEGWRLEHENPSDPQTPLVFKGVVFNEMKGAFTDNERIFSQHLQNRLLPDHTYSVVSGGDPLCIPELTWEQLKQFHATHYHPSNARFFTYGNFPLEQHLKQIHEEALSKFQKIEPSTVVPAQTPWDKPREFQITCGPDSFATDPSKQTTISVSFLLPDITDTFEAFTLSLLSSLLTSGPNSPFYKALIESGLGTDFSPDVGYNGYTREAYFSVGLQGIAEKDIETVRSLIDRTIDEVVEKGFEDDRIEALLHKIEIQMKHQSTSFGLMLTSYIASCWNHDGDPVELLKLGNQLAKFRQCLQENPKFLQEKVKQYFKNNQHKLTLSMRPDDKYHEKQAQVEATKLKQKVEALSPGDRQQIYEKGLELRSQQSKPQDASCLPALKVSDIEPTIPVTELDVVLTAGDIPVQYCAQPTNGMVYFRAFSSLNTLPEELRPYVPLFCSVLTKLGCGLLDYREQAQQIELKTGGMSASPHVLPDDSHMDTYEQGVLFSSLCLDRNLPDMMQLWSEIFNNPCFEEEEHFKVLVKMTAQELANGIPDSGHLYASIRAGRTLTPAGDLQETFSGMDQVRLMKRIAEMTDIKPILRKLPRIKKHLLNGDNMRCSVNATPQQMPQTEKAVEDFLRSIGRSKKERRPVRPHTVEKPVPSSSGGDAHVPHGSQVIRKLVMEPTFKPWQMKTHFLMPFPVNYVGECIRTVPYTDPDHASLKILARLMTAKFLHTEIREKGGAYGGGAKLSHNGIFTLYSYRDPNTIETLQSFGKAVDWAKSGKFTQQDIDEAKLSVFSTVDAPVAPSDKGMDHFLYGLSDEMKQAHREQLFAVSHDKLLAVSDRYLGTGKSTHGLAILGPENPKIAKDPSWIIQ
The experiment in a line: NP40-soluble protein abundance relative to vehicle (solubility fold change) (ratio); higher = more soluble protein in presence of GTP. The method, then: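 Solubility proteome profiling in Jurkat crude lysate. Lysate was treated with Mg-GTP (0.1-10 mM) for 10 min at room temperature and 3 min at 37 °C, then solubilised with 0.8% NP40 and benzonase, followed by ultracentrifugation. Proteins were quantified by TMT10 LC-MS/MS; the value is the NP40-soluble abundance relative to the NP40-processed vehicle, from 3 independent experiments.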

As to `Nc1nc2c(ncn2[C@@H]2O[C@H](COP(=O)(O)OP(=O)(O)OP(=O)(O)O)[C@@H](O)[C@H]2O)c(=O)[nH]1` [guanosine triphosphate], the NP40-soluble protein abundance (concentration: 0.1mM) is 0.994 ± 0.019; the NP40-soluble protein abundance (concentration: 0.5mM) amounted to 1.02 ± 0.014; the NP40-soluble protein abundance (concentration: 1mM) is 0.936 ± 0.027; the NP40-soluble protein abundance (concentration: 2mM) was 0.951 ± 0.034; the NP40-soluble protein abundance (concentration: 4mM) was found to be 0.92 ± 0.046; the NP40-soluble protein abundance (concentration: 6mM) came out at 0.932 ± 0.037. Moreover, the NP40-soluble protein abundance by setting is: (concentration: 8mM) 0.926 ± 0.019; (concentration: 10mM) 0.894 ± 0.05.

Source of the values: the supplement of paper PMC6411743.
